Data: the supplement of paper PMC12823440, “Inhibitors supercharge kinase turnover through native proteolytic circuits” (Nature, 2025)
Structures can show the parent of a compound that is named as a salt. This is one part of the list. The calls rarely recur for the same compound in another form.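 Kinases, fused to nanoluciferase, were expressed in K562 cells; luminescence was measured every 4 h from 2 to 18 h as percent of control (DMSO = 100%, positive control = 0%). A time point is decreased if signal falls significantly (2 sigma). Hits were called by the authors by a rule that is not shown; the count of time points alone does not decide it.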

Sequences of proteins named here, by UniProt entry; tags and fusion partners are left off. A change or cut given only in a name is not applied to a line headed by its entry.
UniProt P42680: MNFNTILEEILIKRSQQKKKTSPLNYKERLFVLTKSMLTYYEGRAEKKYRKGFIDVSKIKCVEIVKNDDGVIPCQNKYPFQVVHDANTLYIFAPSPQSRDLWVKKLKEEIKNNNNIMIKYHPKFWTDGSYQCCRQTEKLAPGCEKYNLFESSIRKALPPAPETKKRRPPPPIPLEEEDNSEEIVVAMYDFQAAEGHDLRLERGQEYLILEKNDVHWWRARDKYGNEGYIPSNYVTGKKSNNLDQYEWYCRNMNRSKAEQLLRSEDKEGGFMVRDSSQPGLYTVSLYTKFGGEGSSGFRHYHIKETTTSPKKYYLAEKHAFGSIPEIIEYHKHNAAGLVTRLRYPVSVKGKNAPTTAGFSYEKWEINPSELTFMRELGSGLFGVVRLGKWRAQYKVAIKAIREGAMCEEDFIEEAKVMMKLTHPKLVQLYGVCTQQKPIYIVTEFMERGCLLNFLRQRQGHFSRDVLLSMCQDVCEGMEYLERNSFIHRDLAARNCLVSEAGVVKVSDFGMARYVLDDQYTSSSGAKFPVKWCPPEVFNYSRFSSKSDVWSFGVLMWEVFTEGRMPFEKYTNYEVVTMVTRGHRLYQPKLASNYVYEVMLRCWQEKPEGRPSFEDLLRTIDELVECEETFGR
UniProt Q6PHR2: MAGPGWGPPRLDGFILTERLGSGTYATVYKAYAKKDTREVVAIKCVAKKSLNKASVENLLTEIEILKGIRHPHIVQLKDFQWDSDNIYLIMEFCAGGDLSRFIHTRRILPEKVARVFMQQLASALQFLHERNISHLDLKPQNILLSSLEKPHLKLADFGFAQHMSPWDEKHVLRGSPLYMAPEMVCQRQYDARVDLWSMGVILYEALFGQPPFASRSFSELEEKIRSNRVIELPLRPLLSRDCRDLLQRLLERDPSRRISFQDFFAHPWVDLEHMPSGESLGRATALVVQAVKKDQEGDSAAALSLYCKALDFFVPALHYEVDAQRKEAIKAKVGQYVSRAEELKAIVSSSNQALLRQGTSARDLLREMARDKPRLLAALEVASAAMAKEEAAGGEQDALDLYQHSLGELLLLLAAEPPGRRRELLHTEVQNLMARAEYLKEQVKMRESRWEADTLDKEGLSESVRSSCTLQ
UniProt P43403: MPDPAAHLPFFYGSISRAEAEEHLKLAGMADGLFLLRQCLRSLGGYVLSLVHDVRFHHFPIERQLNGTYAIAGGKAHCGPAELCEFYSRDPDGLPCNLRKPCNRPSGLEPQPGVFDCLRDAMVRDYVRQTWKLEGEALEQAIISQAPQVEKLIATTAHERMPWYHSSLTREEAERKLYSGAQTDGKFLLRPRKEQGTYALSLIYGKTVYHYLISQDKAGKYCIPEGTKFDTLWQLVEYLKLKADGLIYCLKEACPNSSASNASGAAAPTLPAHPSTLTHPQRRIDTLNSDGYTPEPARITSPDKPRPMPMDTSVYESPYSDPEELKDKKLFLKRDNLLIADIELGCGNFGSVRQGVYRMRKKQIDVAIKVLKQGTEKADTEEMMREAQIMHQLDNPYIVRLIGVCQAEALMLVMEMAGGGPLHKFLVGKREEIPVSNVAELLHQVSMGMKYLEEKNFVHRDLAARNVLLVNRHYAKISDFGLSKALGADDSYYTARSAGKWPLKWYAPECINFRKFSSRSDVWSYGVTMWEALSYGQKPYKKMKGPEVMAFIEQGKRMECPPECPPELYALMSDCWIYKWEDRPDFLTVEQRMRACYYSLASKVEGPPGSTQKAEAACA
UniProt P00519, whole entry: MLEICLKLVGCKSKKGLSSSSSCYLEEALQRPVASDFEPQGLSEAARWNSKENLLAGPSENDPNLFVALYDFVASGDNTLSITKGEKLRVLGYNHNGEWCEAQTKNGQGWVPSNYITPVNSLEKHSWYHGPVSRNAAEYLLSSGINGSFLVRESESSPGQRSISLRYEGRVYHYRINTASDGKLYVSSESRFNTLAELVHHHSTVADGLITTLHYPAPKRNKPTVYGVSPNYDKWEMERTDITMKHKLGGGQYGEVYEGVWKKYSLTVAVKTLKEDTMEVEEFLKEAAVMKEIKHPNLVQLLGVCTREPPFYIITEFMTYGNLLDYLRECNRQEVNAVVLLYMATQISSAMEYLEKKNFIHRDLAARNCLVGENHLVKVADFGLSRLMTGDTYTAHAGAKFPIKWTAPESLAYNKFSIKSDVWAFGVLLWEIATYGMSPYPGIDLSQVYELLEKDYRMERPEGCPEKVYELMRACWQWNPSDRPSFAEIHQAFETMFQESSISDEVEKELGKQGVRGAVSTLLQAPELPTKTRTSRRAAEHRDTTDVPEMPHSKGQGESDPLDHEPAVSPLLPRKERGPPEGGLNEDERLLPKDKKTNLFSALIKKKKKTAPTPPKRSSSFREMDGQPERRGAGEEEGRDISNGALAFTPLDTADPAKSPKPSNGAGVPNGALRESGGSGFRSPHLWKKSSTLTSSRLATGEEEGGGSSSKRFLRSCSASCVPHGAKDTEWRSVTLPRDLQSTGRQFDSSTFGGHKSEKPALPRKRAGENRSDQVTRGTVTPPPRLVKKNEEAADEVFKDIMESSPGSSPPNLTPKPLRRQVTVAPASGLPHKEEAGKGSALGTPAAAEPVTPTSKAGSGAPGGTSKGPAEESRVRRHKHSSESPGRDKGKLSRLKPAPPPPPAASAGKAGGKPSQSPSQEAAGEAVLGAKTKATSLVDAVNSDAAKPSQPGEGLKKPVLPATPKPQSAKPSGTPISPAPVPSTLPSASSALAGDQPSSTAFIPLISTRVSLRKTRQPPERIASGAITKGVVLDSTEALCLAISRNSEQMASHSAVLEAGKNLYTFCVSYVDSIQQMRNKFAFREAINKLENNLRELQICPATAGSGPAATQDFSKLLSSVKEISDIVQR
UniProt P31749: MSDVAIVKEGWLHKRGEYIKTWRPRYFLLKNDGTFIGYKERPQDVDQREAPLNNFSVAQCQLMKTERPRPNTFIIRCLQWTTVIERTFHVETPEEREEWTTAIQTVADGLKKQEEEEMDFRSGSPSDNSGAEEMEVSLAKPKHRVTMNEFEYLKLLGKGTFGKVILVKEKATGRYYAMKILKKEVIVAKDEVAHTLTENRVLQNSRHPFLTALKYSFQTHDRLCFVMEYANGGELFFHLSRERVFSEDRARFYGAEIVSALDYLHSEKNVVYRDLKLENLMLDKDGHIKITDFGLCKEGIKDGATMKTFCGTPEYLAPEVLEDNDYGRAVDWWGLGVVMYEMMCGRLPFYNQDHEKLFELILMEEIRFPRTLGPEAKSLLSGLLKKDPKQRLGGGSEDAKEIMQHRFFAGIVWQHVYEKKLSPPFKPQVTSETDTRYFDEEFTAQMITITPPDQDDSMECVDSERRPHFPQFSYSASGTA
UniProt O14965: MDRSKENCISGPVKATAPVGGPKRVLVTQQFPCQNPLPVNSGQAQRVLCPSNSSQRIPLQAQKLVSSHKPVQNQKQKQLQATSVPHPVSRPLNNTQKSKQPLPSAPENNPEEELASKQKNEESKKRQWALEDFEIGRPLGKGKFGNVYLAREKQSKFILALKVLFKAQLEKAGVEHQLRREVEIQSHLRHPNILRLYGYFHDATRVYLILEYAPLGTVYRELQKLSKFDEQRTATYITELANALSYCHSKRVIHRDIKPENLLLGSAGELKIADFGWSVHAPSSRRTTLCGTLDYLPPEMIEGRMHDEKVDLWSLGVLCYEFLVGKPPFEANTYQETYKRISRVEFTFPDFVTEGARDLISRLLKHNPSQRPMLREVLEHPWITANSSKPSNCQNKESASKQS
UniProt Q96GD4, whole entry: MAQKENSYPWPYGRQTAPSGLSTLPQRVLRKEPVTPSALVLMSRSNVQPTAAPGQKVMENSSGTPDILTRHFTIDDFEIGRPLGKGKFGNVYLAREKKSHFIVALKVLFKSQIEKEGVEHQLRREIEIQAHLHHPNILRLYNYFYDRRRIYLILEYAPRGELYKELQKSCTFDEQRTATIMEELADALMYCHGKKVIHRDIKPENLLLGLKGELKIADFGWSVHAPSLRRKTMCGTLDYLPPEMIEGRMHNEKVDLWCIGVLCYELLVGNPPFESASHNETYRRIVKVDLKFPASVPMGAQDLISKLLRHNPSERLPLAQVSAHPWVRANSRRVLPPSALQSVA
UniProt Q9UQB9: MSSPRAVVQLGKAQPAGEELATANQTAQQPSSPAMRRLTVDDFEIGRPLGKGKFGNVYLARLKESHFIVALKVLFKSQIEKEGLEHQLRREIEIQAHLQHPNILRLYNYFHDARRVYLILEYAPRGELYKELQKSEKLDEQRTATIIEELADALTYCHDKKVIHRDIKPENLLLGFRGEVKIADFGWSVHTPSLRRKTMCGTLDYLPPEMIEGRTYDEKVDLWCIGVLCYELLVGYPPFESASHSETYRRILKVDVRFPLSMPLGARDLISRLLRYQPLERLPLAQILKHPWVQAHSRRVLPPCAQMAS
UniProt P51451: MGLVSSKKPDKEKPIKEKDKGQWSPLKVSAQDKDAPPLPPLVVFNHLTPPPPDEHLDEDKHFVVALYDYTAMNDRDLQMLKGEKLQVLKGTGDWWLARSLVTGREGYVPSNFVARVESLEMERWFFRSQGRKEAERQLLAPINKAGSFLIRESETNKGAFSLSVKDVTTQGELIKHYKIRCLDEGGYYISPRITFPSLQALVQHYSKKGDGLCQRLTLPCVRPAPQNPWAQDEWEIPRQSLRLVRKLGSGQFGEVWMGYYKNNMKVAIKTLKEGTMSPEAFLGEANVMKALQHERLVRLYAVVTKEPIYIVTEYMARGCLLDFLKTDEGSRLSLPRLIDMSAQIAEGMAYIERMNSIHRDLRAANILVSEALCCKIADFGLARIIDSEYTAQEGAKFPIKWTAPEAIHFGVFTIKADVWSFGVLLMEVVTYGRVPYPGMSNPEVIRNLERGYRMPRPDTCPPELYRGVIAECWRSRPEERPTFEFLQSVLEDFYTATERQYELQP
UniProt P51813: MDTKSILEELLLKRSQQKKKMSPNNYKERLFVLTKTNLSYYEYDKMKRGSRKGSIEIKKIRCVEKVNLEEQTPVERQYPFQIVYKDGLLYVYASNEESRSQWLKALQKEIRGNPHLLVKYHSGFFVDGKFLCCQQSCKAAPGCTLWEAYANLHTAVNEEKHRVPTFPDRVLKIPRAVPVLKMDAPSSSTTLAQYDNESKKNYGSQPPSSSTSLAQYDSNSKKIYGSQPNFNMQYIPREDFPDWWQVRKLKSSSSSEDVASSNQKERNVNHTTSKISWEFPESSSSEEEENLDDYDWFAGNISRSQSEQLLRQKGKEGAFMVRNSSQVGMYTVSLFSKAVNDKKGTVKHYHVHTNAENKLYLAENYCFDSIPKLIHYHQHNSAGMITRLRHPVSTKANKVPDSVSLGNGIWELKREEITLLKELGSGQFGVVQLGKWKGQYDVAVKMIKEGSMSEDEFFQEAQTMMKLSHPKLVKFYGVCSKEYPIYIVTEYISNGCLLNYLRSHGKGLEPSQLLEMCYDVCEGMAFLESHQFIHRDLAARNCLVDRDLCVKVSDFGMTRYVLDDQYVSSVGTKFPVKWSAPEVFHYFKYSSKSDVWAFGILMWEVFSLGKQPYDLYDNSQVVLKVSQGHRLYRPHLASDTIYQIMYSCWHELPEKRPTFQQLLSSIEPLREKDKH
UniProt P15056, whole entry, looked up: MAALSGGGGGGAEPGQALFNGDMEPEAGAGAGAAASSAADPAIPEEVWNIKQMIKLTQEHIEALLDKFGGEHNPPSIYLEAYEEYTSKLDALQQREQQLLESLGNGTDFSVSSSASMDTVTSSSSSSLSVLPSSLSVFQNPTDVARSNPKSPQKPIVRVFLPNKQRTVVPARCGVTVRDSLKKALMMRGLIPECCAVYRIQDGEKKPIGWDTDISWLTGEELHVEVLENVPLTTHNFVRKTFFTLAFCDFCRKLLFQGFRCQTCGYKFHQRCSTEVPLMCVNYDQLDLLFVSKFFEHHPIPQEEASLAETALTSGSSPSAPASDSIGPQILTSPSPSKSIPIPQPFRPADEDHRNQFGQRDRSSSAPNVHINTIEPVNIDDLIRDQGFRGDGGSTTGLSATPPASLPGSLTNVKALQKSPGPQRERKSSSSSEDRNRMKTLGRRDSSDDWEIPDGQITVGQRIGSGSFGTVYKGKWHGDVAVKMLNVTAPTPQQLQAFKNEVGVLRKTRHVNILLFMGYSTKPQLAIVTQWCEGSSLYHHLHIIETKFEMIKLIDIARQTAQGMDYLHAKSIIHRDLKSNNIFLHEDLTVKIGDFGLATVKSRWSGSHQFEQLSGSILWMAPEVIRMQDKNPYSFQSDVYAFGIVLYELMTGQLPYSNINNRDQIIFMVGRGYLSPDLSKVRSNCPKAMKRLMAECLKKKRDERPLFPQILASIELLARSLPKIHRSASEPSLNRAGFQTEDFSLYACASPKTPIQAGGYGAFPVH

Assays:
Details in all cases: K562; 2-18 h
[1] = biological target: STK38 (UniProt Q15208); test: kinase-Nluc reporter destabilization hit call (1 = scored as downregulated) (binary); higher = compound decreases kinase abundance
[2] = biological target: SYK (UniProt P43405); test: as above
[3] = biological target: TEC (UniProt P42680); test: as above
[4] = biological target: TYK2 (UniProt P29597); test: as above
[5] = biological target: ULK3 (UniProt Q6PHR2); test: as above
[6] = biological target: YES1 (UniProt P07947); test: as above
[7] = biological target: ZAK (UniProt Q9NYL2); test: as above
[8] = biological target: ZAP70 (UniProt P43403); test: as above
[9] = biological target: ABL1 (UniProt P00519); test: number of time points (of 5) at which kinase-Nluc abundance scored as decreased, DMSO-normalised (count); higher = more persistent destabilization
[10] = biological target: AKT1 (UniProt P31749); test: as above
[11] = biological target: ALK (UniProt Q9UM73); test: as above
[12] = biological target: ARAF (UniProt P10398); test: as above
[13] = biological target: AURKA (UniProt O14965); test: as above
[14] = biological target: AURKB (UniProt Q96GD4); test: as above
[15] = biological target: AURKC (UniProt Q9UQB9); test: as above
[16] = biological target: BLK (UniProt P51451); test: as above
[17] = biological target: BMX (UniProt P51813); test: as above
[18] = biological target: BRAF (UniProt P15056); test: as above
[19] = system: BRAF_V600E; test: as above
[20] = biological target: BTK (UniProt Q06187); test: as above

SMILES	kinase-Nluc reporter destabilization hit call [1]	kinase-Nluc reporter destabilization hit call [2]	kinase-Nluc reporter destabilization hit call [3]	kinase-Nluc reporter destabilization hit call [4]	kinase-Nluc reporter destabilization hit call [5]	kinase-Nluc reporter destabilization hit call [6]	kinase-Nluc reporter destabilization hit call [7]	kinase-Nluc reporter destabilization hit call [8]	number of time points [9]	number of time points [10]	number of time points [11]	number of time points [12]	number of time points [13]	number of time points [14]	number of time points [15]	number of time points [16]	number of time points [17]	number of time points [18]	number of time points [19]	number of time points [20]
Cc1cccc(-c2[nH]ncc2-c2ccnc3ccccc23)n1 (10 µM)	inactive: 0	inactive: 0	inactive: 0	inactive: 0	inactive: 0	inactive: 0	inactive: 0	inactive: 0	0	0	0	0	0	0	0	0	0	0	0	0
CCN1CCN(Cc2cnc(Nc3cc(-c4cc(F)c5nc(C)n(C(C)C)c5c4)c(F)cn3)nc2)CC1 (10 µM)	inactive: 0	inactive: 0	inactive: 0	inactive: 0	inactive: 0	inactive: 0	inactive: 0	inactive: 0	0	0	0	0	3	0	0	0	3	0	1	0
Fc1ccc2[nH]ccc2c1-c1nc(N2CCOCC2)c2sc(CN3CCN(CC4CC4)CC3)cc2n1 (10 µM)	inactive: 0	inactive: 0	inactive: 0	inactive: 0	inactive: 0	inactive: 0	inactive: 0	inactive: 0	0	0	0	0	0	0	0	0	0	0	0	0
Cc1cccc(COc2cccc(/C=C3\C(=O)NN(c4ccccc4)C3=O)c2)c1 (10 µM)	inactive: 0	inactive: 0	inactive: 0	inactive: 0	inactive: 0	inactive: 0	inactive: 0	inactive: 0	0	0	0	0	0	0	0	0	0	0	0	0
COc1cc2c(cc1OC)/C(=C/c1ccc(O)cc1)C(=O)N2 (10 µM)	inactive: 0	inactive: 0	inactive: 0	inactive: 0	inactive: 0	inactive: 0	inactive: 0	inactive: 0	0	0	0	0	0	0	0	0	0	0	0	0
Cc1cc(C(=O)NOCCO)c(Nc2ccc(I)cc2F)n(C)c1=O (10 µM)	inactive: 0	inactive: 0	inactive: 0	inactive: 0	inactive: 0	inactive: 0	inactive: 0	inactive: 0	2	0	0	0	0	0	0	0	0	0	2	0
Cn1c(=O)c2c(nc(S(C)(=O)=O)n2C)n(CC#Cc2cccc(O)c2)c1=O (2.5 µM)	inactive: 0	inactive: 0	inactive: 0	inactive: 0	inactive: 0	inactive: 0	inactive: 0	inactive: 0	0	0	0	0	0	0	0	0	0	0	0	0
N#Cc1ccc2ncnc(NCCc3ccccc3)c2c1 [Senexin A] (10 µM)	inactive: 0	inactive: 0	inactive: 0	inactive: 0	inactive: 0	inactive: 0	inactive: 0	inactive: 0	0	0	0	0	0	0	0	0	0	0	0	0
O=C(O)[C@H]1O[C@@H](Oc2cc3oc(-c4ccc(O)cc4)cc(=O)c3c(O)c2O)[C@H](O)[C@@H](O)[C@@H]1O [Scutellarin] (10 µM)	inactive: 0	inactive: 0	inactive: 0	inactive: 0	inactive: 0	inactive: 0	inactive: 0	inactive: 0	0	0	0	0	0	0	0	0	0	0	0	0
CN(C)c1ccc(-c2nc3ncc(Cl)c(N4CCN(CC(=O)Nc5nccs5)CC4)c3[nH]2)cc1 (2 µM)	inactive: 0	inactive: 0	inactive: 0	inactive: 0	inactive: 0	inactive: 0	inactive: 0	inactive: 0	0	0	0	0	0	0	0	0	0	0	0	0
CCCCCc1ccc(/C=C/[C@H](O)[C@@H](CO)NC)cc1 [SK1-I (hydrochloride)] (10 µM)	inactive: 0	inactive: 0	inactive: 0	inactive: 0	inactive: 0	inactive: 0	inactive: 0	inactive: 0	0	0	0	0	0	0	0	0	0	0	0	0
